Our source for the binding values is patent publication US20240383964A1, “De Novo Designed alpha(5) beta(1) Integrin selective minibinders” (UNIVERSITY OF WASHINGTON, priority 2023, published 2024).

Amino acid sequences for entries named in this document (tags omitted). A change or cut given only in a name is not applied to a line headed by its entry.
UniProt P08648: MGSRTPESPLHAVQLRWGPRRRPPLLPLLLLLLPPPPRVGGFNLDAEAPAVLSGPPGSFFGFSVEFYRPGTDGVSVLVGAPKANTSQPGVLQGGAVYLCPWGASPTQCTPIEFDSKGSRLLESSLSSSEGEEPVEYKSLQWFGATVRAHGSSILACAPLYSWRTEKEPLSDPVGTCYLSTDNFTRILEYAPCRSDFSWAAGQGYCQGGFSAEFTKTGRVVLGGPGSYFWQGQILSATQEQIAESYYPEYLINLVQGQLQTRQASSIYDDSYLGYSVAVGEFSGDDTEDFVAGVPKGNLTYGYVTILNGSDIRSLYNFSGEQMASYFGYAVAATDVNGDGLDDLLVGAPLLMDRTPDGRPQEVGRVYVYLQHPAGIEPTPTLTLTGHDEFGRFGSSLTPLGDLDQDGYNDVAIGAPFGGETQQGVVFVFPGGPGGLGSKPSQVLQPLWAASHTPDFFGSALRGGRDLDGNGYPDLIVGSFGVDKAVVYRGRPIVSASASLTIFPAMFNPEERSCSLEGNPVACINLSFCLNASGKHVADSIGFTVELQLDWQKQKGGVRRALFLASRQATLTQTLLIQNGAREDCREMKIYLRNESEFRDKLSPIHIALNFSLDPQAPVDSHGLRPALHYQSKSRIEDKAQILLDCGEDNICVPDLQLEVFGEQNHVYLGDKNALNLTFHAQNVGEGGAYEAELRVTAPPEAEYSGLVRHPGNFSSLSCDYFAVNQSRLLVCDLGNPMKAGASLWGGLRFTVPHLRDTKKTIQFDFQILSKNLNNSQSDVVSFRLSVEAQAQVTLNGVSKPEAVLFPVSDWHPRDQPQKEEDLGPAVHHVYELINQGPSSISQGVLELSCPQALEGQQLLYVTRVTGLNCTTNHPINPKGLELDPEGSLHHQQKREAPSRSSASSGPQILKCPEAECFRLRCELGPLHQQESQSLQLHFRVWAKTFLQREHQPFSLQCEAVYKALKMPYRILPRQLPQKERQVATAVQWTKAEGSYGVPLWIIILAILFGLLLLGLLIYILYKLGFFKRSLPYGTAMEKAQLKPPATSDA

These are yes or no findings as the source states them, for the method shown. Some entries that bind do so weakly or less than the wild type.

Assay [1] has as its target T1, integrin α5β1 (UniProt P08648 42-995; P05556 21-728).
T1 construct: also called alpha(5) beta(1) integrin; a5b1
Kind of assay: BLI, low-pH buffer (pH 5).

The target in assay [2] is T1, integrin α5β1. In words: BLI, buffer without metal ions, 100 nM integrin.

B1: xw_a5b1_00179_v4.1 (designed binder)
chain: SELIIHGRGDFPSSELERLRERFERLGIKVRVDHKVLTLIGISEEEAERLARELRKRGIWVEIRK
modifications: N-terminal biotin in the BLI assays
With B1, the binding result with integrin α5β1 [1] and in the assay with integrin α5β1 [2] was “binds” in each case.
